In the test the target is Myc-BirA*-Tax-His (HTLV-1) (UniProt P03409). The test is described as follows: proximity labelling; BioID: HEK293T cells transfected with BirA*-encoding vectors for 24 h, biotin 50 µM for 18 h; streptavidin pulldown on whole cell lysates, mass spectrometry; control: BirA* only; three replicas.

Results are given in words; binding and its absence hold for the method and conditions named. In cells and extracts the contact can be indirect. A yes stands for co-enrichment or nearness to the bait. Other partners may have been found.

The text below walks through data of PMC6831704.

In the case of “Sequestosome-1 (SQSTM-1/p62), endogenous in HEK293T cells (from UniProt Q13501 1-440)”, the binding entry was “binds”.
